This is an account of results in PubChem BioAssay AID1508600 (Functional Genomics Laboratory (NCATS/FGL), 2020).

Among all 53,000 sequences or so, about 3,700 (7%) were called active.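 The calls were made as follows: active = gene knockdowns whose robust z-score for IL-1 alpha signal is at least 2 or at most -2, so actives lie on both sides; inactive = the rest.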 The list shows a part of the results.

A short description of the experiment: Components of the Cytosolic LPS Sensing Pathway: Gene Identification via Genome-wide siRNA Screen.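 Also: robust z of the log signal after scaling to non-targeting control siRNA wells of the plate.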 To be noted: RAW264.7 macrophages, IL-1a HTRF, actives lie on both sides, screened at 100 nM (by protocol), cells primed 5 h with Pam3CSK4 first. A digest of the protocol: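 Three distinct siRNAs per gene were tested singly at 100 nM in RAW264.7 macrophages. Following Pam3CSK4 priming and 24 hour LipidA transfection, IL-1a secretion was read by HTRF.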
“CCAAAGAGAUCCCAUACAATT against Spata31d1a”: the z-score is inactive: 1.31. On to GGGAGAGAAUGUGUUUGGUTT against Rps14, for which the z-score was inactive: 0.265. The figure for GGACUGAGAUCAAAUUCUCTT against Ptges2 is inactive: 0.806. The figure for GGAGAUUAACAACAUGAAGTT against Brap is inactive: -0.707; for CGAGAAGUACAAAAGGGAGTT against Ccdc103 it is inactive: -0.768; for GUGCCAUGAAGAUCUCAAATT against Lce1c it is inactive: 1.33.

For the sequence GGAGUGGCUCUGUUUGAACTT against Bsn, the z-score was inactive: 0.775. The figure for GCCAAAUGGCUGUAUCUAUTT against Lgi2 is inactive: -0.0593; for CGGUGUUUUGGUUAAAUGUTT against Slamf6 it is inactive: 1.09; for GGCAAAUUUGGAUGUGUGUTT against Dsg3 it is inactive: -0.378. As for GGUGUGGACCCUAAGCUUUTT against Pianp, the z-score is inactive: 1.9.

For GGAAAGCAAGUGCACAAAUTT against Slco1a4, the z-score is inactive: 0.618. Consider GGAAUUUUCAGUGUGUAAATT against Adam9, for which the z-score was inactive: -0.686.

As for GCAGGAAUUCUUGAAUUAUTT against Ly75, the z-score is active: 2.66. Then GGAUGAUGACAAUUUUGAATT against Nap1l4, with inactive: -0.142; and GGCCCAUAGUUGACUACAUTT against Septin8, with inactive: 0.11; and GCAGCAUUUUAUCAACCAGTT against R3hdm4, with inactive: -0.0514. Then GCCUCUCUCUAUCUAUGCATT against Tob2, with active: -2.2; and GGGCAUUUAGGGAAAAAAUTT against Zfp451, with inactive: -1.63; and CCUGCUAAGUGAAUUUGUGTT against Cmpk1, with active: 2.18. The figure for CCGUUGGAUACUGUAGUUCTT against Gpr152 is inactive: 0.023. On to CCUAACAUUCACUGUGUCATT against Olfr994, for which the z-score was inactive: 0.348.

Take CGCUCUCUACGAUCAUUGUTT against Olfr481: the z-score is inactive: -0.387. Then GCAUCGUUAUGCGCCUCACTT against Neurog2, with inactive: 0.297; and GGAGCAUGUCUUUAAGAAGTT against Stac, with inactive: -1.15; and GGCGGUUCAAUAUUAAGCUTT against Mlxipl, with inactive: 0.743. The figure for “GGCUCCUAGUGAUUAAAAGTT against 4930578I06Rik” is inactive: 0.0788; for GGAAGAAGAGAAACACGAGTT against Xpa it is inactive: -0.0701; for GGAGGAUUACAACACUGUUTT against Enpp3 it is inactive: -0.617.

In the case of GGACCUUGGCCUUACACAATT against Astn2, the z-score was active: 2.29.

For GGAGAUUGUAGAGGACGUATT against U2af2, the z-score is inactive: -0.745. The figure for GCUAGUAUUCUAAGAUCUUTT against Mpp6 is active: 2.25; for GGAUGACUUCAAAUCAGAATT against Tnip2 it is inactive: 0.156.

As for GCGUGUACCCUUUCUAGUGTT against Slc18a3, the z-score is inactive: 0.881. Take GGGCACAUACUCAGAUGAATT against Ngfr: the z-score is inactive: -0.62.

On to GCGGCAUAUGCCUACUCUUTT against Slc6a12, for which the z-score is inactive: -0.381. Then CGAUUUGCAGCCCUCAUGATT against Inka1, with active: -2.27; and GGAGCUGAGAAACAAGAUUTT against Bspry, with inactive: -0.972; and CGCACAAUUACCUCAGCAATT against Rassf3, with inactive: -1.39. As for GGUCUUUGAUGAAGAAGUGTT against Rsph9, the z-score is inactive: -1.3. The figure for GCUUUCAAGUGGUUAUGAATT against Nsun6 is inactive: 0.0136; for GGAAGAUGACAACUUAUCUTT against Abcc8 it is inactive: -0.854; for GGACUUCUUUGUAAUACUGTT against Abca13 it is inactive: 0.543. Regarding GGAUUAAACCAUUAACUGCTT against AY702102, the z-score is inactive: 1.04. Then GGAGAGCAGAUGUGAUUCUTT against Mrm2, with inactive: -0.561. The figure for CCUGAUCUUCUGUGAUAGCTT against Olfr881 is inactive: 0.602; for UUUGCAUGUACAGAAUGCUTT against Olfr312 it is inactive: 1.54; for GGAGCAGAUUAAAUCCCUGTT against Krt8 it is active: 2.46. Regarding GGUCCUAGUCUUUCAGAUGTT against Iqca, the z-score is inactive: 1.7. Then GGAGACAGCACAAGUCCUGTT against H2-M10.2, with inactive: -0.159; and GGAUUUCAAACACGUCUUUTT against Asic5, with inactive: 0.222; and GGCUGACCUUCUGUGCUGATT against Olfr876, with inactive: -0.98. The figure for GGUGUCAGAAGCAGUGUAUTT against Treml1 is inactive: 0.459; for GCUGGUCAAGGGUCUAGAGTT against Saa3 it is active: -2.05; for CGGUCGUGAGUUUGUAUAUTT against Pyroxd1 it is inactive: 0.179. Take GCAUGUUCUUUGUCACCUGTT against Htr6: the z-score was inactive: -0.334. The figure for GGAGGUAUUUACCAAAGAUTT against Acer2 is inactive: 0.453. With GGAGAAGAAGAAAAAGUCATT against BC005537, the z-score is inactive: -0.495. The figure for CGAUGGAAAACCUCACAUCTT against Oaz2 is inactive: -0.0735; for GCACUGGACAUUGUACACCTT against Caskin1 it is inactive: 1.71; for GGACAAGUUCAUAAAGAGATT against Cyp2r1 it is inactive: -0.991. The figure for GGUUACCUAUUACAUCAUATT against Pcdhgb4 is inactive: 0.811; for GGAGAUGCUAUAGAUGAAATT against Il20 it is inactive: -0.04; for GCAUGAUCUCAUGUUCCUUTT against Tmem38b it is inactive: 0.651. As to GCGAUUUCGUCUUCUGUUGTT against Wdr5b, the z-score was inactive: -0.0399.

Turning to GCAUAUGUGUGUUUAACCUTT against Rdh16, the z-score was inactive: -0.0925.

Consider GGAGAUACAAAUUUAAGAGTT against Tdp2, for which the z-score was inactive: -1.17. Then GGAAGACUUUGCUUAUUGGTT against Tspan10, with inactive: 0.693; and GCAUGCUUCGCGUAUGCAATT against Gpr151, with inactive: -0.72; and GACUGUUUUACAUUCCACATT against Klra21, with inactive: -0.138. The figure for GGAGUUGAUUGAGGUAAAGTT against Mettl3 is inactive: -1.83. Then GCACAGACAUGAAGUACCGTT against Tcea3, with inactive: 0.32; and GCUGAGUUGACUCCUACUGTT against Mcpt1, with active: -2.23. For GCUUACCCUGACUCCAAUUTT against Dhx33, the z-score was inactive: -1.76. For GGCAACAAGGUCCUUUAAGTT against Mllt3, the z-score was inactive: 1.86. On to GGAGGCUCUCACCGUAAACTT against Ttc7, for which the z-score is inactive: -0.985.

Regarding GGCUGGCAUCACCAUCAAATT against Kit, the z-score was inactive: 0.429.

CCCAACAACCAACUAUUUUTT against Kcna1: the z-score was active: 3.36. For the sequence GCGUGAUAGAGCUUUAUCUTT against Slc16a7, the z-score is inactive: -0.337. The figure for GGCCAAUUAACUAUGAAUUTT against Idi2 is inactive: 0.197. On to GGCUUCUAGUGGGAUGUAATT against Slc45a1, for which the z-score was inactive: -0.16. The figure for GCUGGGUCUAAACUGUGCCTT against Cpsf2 is inactive: 0.302; for GGACUGCUUACCUAAAAGUTT against Insig1 it is inactive: 1.06.

GGAGCGUAGCAUUUGCAUATT against Gcnt2: the z-score is inactive: 1.81. Take CCCUAAUAAUCAAUGCAUCTT against Ifit1bl2: the z-score is inactive: 0.239. In the case of GGCCAAAUUCUUCAGCAGATT against Rpl27a, the z-score is inactive: -0.263. The figure for CCUAACAAAUGGUGGGAAATT against Nxph1 is inactive: 0.819; for GGAACAGUUUGCUUGGAGATT against Rps10 it is inactive: 0.455; for CCUCACAUAUACUGAGCUUTT against Parp12 it is inactive: 0.665.

As for GGACUCCUCCCAAGACGAATT against Avil, the z-score is inactive: -0.118. The figure for GCUGCUGUCCUAAACUUUCTT against Wdr83os is inactive: -0.0195. The figure for GGAUUCUGAGCGUAGCUGATT against Mblac1 is inactive: 0.761; for CCAUUGUCAAGCCAGACUATT against Emilin1 it is inactive: -1.2; for GCUCAGCCUGAGUAACGCATT against Nup62 it is inactive: -0.323. Then GCUGGUCAUCAUGUGGAAGTT against Ssu2, with inactive: 1.04. Turning to “CGGUCUACAAUAACAACAGTT against 1700009J07Rik”, the z-score was inactive: -0.631. Then GCACAGCUCUACAUAUUUCTT against Olfr313, with inactive: 0.595. The figure for GGUCCUAACAUCCAGAGUGTT against Zfp438 is inactive: -1.06; for GCUGAGGGUAAAACCGGAATT against Tbc1d22b it is inactive: 1.34. The figure for GGAAGAGGCAGAUUUAUGGTT against Prss23 is inactive: 0.856. As to GGGAGAGGACCUCAAUGAATT against Mob1a, the z-score is inactive: -0.0583. Then GGUACUGUGGUUUAUUCCUTT against Zmat2, with inactive: 1.01; and GACCACCAGAAAGUUUCACTT against Lfng, with inactive: 0.339. For GCUCCACUCAAUUCAGUCCTT against Cd19, the z-score is inactive: -0.0698.

In the case of GGUGACACUUCUUGUGGAUTT against Kctd20, the z-score was inactive: 0.76. Then GGCUGUUCCAUGAAGUUGUTT against Noc2l, with inactive: -1.09; and GGCAUUGUAUUUAACACACTT against Aass, with inactive: 1.76.
